Measured values taken from PMC4380364.
Construct, isoform or probe ends are uncertain for at least one entry. Where cells or extracts were used, other partners may take part. The comparison behind a weaker result is the experiment's own reference, which may not be listed here. At least one verdict rests on a figure or table, not on a statement of the authors.

Molecular target: T1, L-selectin (cell surface, Jurkat T lymphocytes) (Homo sapiens?) (UniProt P14151)
T1 sequence: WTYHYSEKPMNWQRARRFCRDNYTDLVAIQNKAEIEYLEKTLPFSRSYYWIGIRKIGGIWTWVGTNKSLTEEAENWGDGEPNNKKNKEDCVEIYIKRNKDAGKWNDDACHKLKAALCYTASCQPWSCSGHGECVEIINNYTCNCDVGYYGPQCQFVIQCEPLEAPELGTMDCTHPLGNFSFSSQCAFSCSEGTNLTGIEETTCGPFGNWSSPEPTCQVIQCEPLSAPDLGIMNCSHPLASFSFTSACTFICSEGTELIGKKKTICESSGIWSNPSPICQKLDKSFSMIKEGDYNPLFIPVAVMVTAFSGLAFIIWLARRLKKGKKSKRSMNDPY
Experiment: competition (flow cytometry)
Conditions: Jurkat cells, competition with 100 nM FITC-DREG56 for 35 min at 4°C, washed in PBS, 2% PFA fix, SLeX assay in PBS with 1% human serum albumin, protein on the cell surface, single-stranded DNA

Q: Does “TAGCCAAGGTAACCAGTACAAGGTGCTAAACGTAATGGCTTCGGCTTAC [LS-Aptamer (monovalent)]” bind (100 nM, vs FITC-SLeX (50 ug/ml))?
A: Result: binds more weakly

Q: Which results are given for “AGAGGCTACAGCGATAAGTCGACATTGCTGACCGTACCTAGTAATACGT [SC-Aptamer (monovalent scrambled)]”?
A: binding result (100 nM, vs FITC-SLeX, much less inhibition than LS-Multi-Aptamer): binds more weakly; binding result (vs 100 nM FITC-DREG56, LS-Multi-Aptamer out-competed at lower concentrations than this): binds more weakly
